The list is a part of this screen's results and no random one: it gathers tests that were run many times, whatever their T/C, doses with no T/C, and many T/C values between a quarter and a half above the control. Further doses and runs are listed elsewhere. T/C is the treated group as % of the vehicle group. Schedules are NCI's codes, read here as Q, the interval in days (D) or hours (H), X, the number of doses. Some T/C values are followed by the survivors on the day toxicity was checked, most often the fifth; without a count, all were alive then. Some entries were tested several times; the results are listed from low to high. Some entries give survivors of the animals treated and no T/C: the source files T/C as zero there, which appears to mark a toxic dose or a test without result, not a measured value. Counts of survivors are from the toxicity check (mostly the fifth day) where no day follows; animals may have died later. Some schedules carry Z or #; the key to these is not given.
System: BDF1 mice, Adenocarcinoma 755 s.c., tumor weight T/C
Assay: NCI In Vivo Anticancer Drug Screen. Data for tumor model Adenocarcinoma 755 (subcutaneous) in B6D2F1 (BDF1) mice
Details: T/C endpoint: mean tumor weight, higher T/C = larger tumour; for T/C: evaluated on day 12
Method: The antitumor activity of compounds was measured in mice bearing transplantable tumors. Survival or tumor size were measured and the results are expressed as the measurement made in the treated group (T) divided by the measurement made in the vehicle treated control group (C). The tumor model used in this assay is Adenocarcinoma 755 (subcutaneous) in B6D2F1 (BDF1) mice

[1] = dose: 150.0 mg/kg/injection, schedule: Q01DX011 (ip), vehicle: carboxymethylcellulose (CMC)
[2] = dose: 56.0 mg/kg/injection, schedule: Q01DX011 (ip), vehicle: carboxymethylcellulose (CMC)
[3] = dose: 100.0 mg/kg/injection, schedule: Q01DX011 (ip), vehicle: carboxymethylcellulose (CMC)
[4] = dose: 8.0 mg/kg/injection, schedule: Q01DX011 (ip), vehicle: methylcellulose (MC)

Question: How did the T/C (dose: 125.0 mg/kg/injection, schedule: Q01DX001 (ip), vehicle: saline) turn out when CCOC(N)=O was run?
Answer: The T/C was 134 % of control.

Question: What about the survivor count (dose: 500.0 mg/kg/injection, schedule: Q#A X022 (ip), vehicle: saline) of the same compound?
Answer: Its survivor count is 0 of 10.

Question: And the survivor count (dose: 501.0 mg/kg/injection, schedule: Q01DX011 (ip), vehicle: carboxymethylcellulose (CMC))?
Answer: Its survivor count is 6 of 10.

Question: And the survivor count (dose: 820.0 mg/kg/injection, schedule: Q01DX011 (ip), vehicle: carboxymethylcellulose (CMC))?
Answer: The survivor count was 2 of 9.

Question: What about the survivor count (dose: 1000.0 mg/kg/injection, schedule: Q01DX011 (im), vehicle: saline) of the same compound?
Answer: The survivor count was 3 of 10.

Question: What about the survivor count (dose: 1000.0 mg/kg/injection, schedule: Q01DX011 (ip), vehicle: methylcellulose (MC)) of the same compound?
Answer: The survivor count was 3 of 10.

Question: What about the survivor count (dose: 1000.0 mg/kg/injection, schedule: Q01DX011 (ip), vehicle: saline) of the same compound?
Answer: Its survivor count is 0 of 10.

Question: And the survivor count (dose: 1000.0 mg/kg/injection, schedule: Q01DX011 (oral), vehicle: saline)?
Answer: Its survivor count is 4 of 9.

Question: And the survivor count (dose: 1000.0 mg/kg/injection, schedule: Q01DX011 (sc), vehicle: saline)?
Answer: The survivor count was 1 of 10.

Question: What about the survivor count (dose: 1500.0 mg/kg/injection, schedule: Q03DX004 (ip), vehicle: saline) of the same compound?
Answer: The survivor count was 3 of 10.

Question: And the survivor count (dose: 2000.0 mg/kg/injection, schedule: Q01DX011 (oral), vehicle: saline)?
Answer: Its survivor count is 0 of 10.

Question: What about the survivor count (dose: 3000.0 mg/kg/injection, schedule: Q03DX004 (ip), vehicle: saline) of the same compound?
Answer: The survivor count was 0 of 10.

Question: For O=CNC(Cc1ccc(N(CCCl)CCCl)cc1)C(=O)O (centres undefined), which survivor count (dose: 10.0 mg/kg/injection, schedule: Q01DX011 (ip), vehicle: carboxymethylcellulose (CMC)) is on record?
Answer: The survivor count was 6 of 10.

Question: Which results are given for SCc1ccccn1?
Answer: T/C (dose: 75.5 mg/kg/injection, schedule: Q01DX011 (ip), vehicle: carboxymethylcellulose (CMC)): 136 % of control [8 of 10 alive]; T/C [1]: 128 % of control [9 of 10 alive]

Question: How did the survivor count (dose: 75.0 mg/kg/injection, schedule: Q01DX011 (ip), vehicle: methylcellulose (MC)) turn out when Cn1c(=O)c2c(nc(/N=C/c3ccccc3)n2C)n(C)c1=O was run?
Answer: The survivor count was 2 of 10.

Question: With CC1CCC(n2cnc3c([N+](C)(C)C)ncnc32)O1 (centres undefined) as the compound, how does the survivor count (dose: 240.0 mg/kg/injection, schedule: Q01DX011 (ip), vehicle: saline) read?
Answer: Its survivor count is 0 of 10.

Question: With Cn1cnc2c(ncn2C2OC(CO)C(O)C2O)c1=N (centres undefined) as the compound, how does the survivor count (dose: 600.0 mg/kg/injection, schedule: Q01DX011 (ip), vehicle: saline) read?
Answer: Its survivor count is 6 of 10.

Question: COc1ccc(/C=N/Nc2nc3c([nH]2)c(=O)n(C)c(=O)n3C)cc1 was tested. Which T/C (dose: 120.0 mg/kg/injection, schedule: Q01DX011 (ip), vehicle: carboxymethylcellulose (CMC)) did it give?
Answer: The T/C was 141 and 143 % of control [9 of 10 alive].

Question: CCCCn1cnc2c(SC)nc(N)nc21 was tested. Which T/C (dose: 30.0 mg/kg/injection, schedule: Q01DX011 (ip), vehicle: carboxymethylcellulose (CMC)) did it give?
Answer: Its T/C is 7, 23, 24, 30 % of control.

Question: What about the survivor count (dose: 230.0 mg/kg/injection, schedule: Q01DX011 (ip), vehicle: carboxymethylcellulose (CMC)) of the same compound?
Answer: The survivor count was 5 of 10.

Question: For CC1CCN2CCC(O)C12 (centres undefined), which T/C (dose: 14.0 mg/kg/injection, schedule: Q01DX011 (ip), vehicle: carboxymethylcellulose (CMC)) is on record?
Answer: The T/C was 130 % of control.

Question: What about the T/C (dose: 28.0 mg/kg/injection, schedule: Q01DX011 (ip), vehicle: carboxymethylcellulose (CMC)) of the same compound?
Answer: The T/C was 136 % of control.

Question: What about the T/C [2] of the same compound?
Answer: Its T/C is 127 % of control.

Question: What about the survivor count [2] of the same compound?
Answer: The survivor count was 6 of 10.

Question: And the survivor count (dose: 113.0 mg/kg/injection, schedule: Q01DX011 (ip), vehicle: carboxymethylcellulose (CMC))?
Answer: Its survivor count is 2 of 10.

Question: [N-]=[N+]=C1C(=O)NC(=O)N2C3CC(O)C(COC12)O3 (centres undefined) was tested. Which survivor count (dose: 600.0 mg/kg/injection, schedule: Q01DX011 (ip), vehicle: carboxymethylcellulose (CMC)) did it give?
Answer: The survivor count was 0 of 10.

Question: Which survivor count (dose: 32.0 mg/kg/injection, schedule: Q01DX011 (ip), vehicle: water) does the source give for CN(C)c1ccc(/C=C/c2ccnc3ccccc23)cc1 here?
Answer: Its survivor count is 2 of 10.

Question: And the survivor count (dose: 62.5 mg/kg/injection, schedule: Q01DX011 (ip), vehicle: water)?
Answer: The survivor count was 0 of 10.

Question: And the survivor count (dose: 125.0 mg/kg/injection, schedule: Q01DX011 (ip), vehicle: water)?
Answer: The survivor count was 0 of 10.

Question: What about the survivor count (dose: 250.0 mg/kg/injection, schedule: Q01DX011 (ip), vehicle: water) of the same compound?
Answer: The survivor count was 0 of 10.

Question: What about the survivor count (dose: 500.0 mg/kg/injection, schedule: Q01DX011 (ip), vehicle: water) of the same compound?
Answer: The survivor count was 0 of 10.

Question: Which survivor count (dose: 120.0 mg/kg/injection, schedule: Q01DX011 (ip), vehicle: methylcellulose (MC)) does the source give for C/C(=N\NC(=O)c1ccncc1)c1ccccc1Cl here?
Answer: The survivor count was 4 of 10.

Question: How did the T/C (dose: 25.0 mg/kg/injection, schedule: Q01DX011 (ip), vehicle: other) turn out when CN1CCN(C(=O)CCCl)CC1 was run?
Answer: Its T/C is 132 % of control.

Question: What about the T/C (dose: 75.0 mg/kg/injection, schedule: Q01DX011 (ip), vehicle: other) of the same compound?
Answer: Its T/C is 128 % of control.

Question: Which results are given for Cc1cc2nc3c(=O)[nH]c(=O)nc-3n(CC(O)C(O)C(O)C(O)CO)c2cc1C (centres undefined)?
Answer: T/C (dose: 19.0 mg/kg/injection, schedule: Q01DX011 (ip), vehicle: carboxymethylcellulose (CMC)): 147 % of control [9 of 10 alive]; survivor count (dose: 250.0 mg/kg/injection, schedule: Q01DX011 (ip), vehicle: methylcellulose (MC)): 4 of 10

Question: COc1cc(C(=O)[O][Hg][CH2]C2CC(O)CC([CH2][Hg][O]C(=O)c3cc(OC)c(OC)c(OC)c3)O2)cc(OC)c1OC (centres undefined) was tested. Which survivor count (dose: 50.0 mg/kg/injection, schedule: Q01DX011 (ip), vehicle: carboxymethylcellulose (CMC)) did it give?
Answer: Its survivor count is 5 of 10.

Question: What about the survivor count [3] of the same compound?
Answer: Its survivor count is 0 of 10.

Question: What about the survivor count (dose: 200.0 mg/kg/injection, schedule: Q01DX011 (ip), vehicle: carboxymethylcellulose (CMC)) of the same compound?
Answer: The survivor count was 0 of 10.

Question: Which results are given for CNc1nc(NC)c2[nH]cnc2n1?
Answer: survivor count [3]: 3 of 10; survivor count (dose: 125.0 mg/kg/injection, schedule: Q01DX011 (ip), vehicle: carboxymethylcellulose (CMC)): 2 of 10; survivor count [1]: 1 of 10

Question: Which results are given for C=CCSc1nc(N)nc2nc[nH]c12?
Answer: survivor count (dose: 1.0 mg/kg/injection, schedule: Q01DX011 (ip), vehicle: methylcellulose (MC)): 4 of 10 and 5 of 10; survivor count (dose: 2.0 mg/kg/injection, schedule: Q01DX011 (ip), vehicle: methylcellulose (MC)): 3 of 10; survivor count (dose: 4.0 mg/kg/injection, schedule: Q01DX011 (ip), vehicle: methylcellulose (MC)): 3 of 10; T/C [4]: 3, 5, 7 % of control [9 of 10 alive]; survivor count [4]: 2 of 10; survivor count (dose: 64.0 mg/kg/injection, schedule: Q01DX011 (ip), vehicle: methylcellulose (MC)): 5 of 10

Question: How did the survivor count (dose: 160.0 mg/kg/injection, schedule: Q01DX011 (ip), vehicle: methylcellulose (MC)) turn out when C[C@H](CCC(=O)O)[C@H]1CC[C@H]2[C@@H]3[C@H](O)C[C@@H]4C[C@H](O)CC[C@]4(C)[C@H]3C[C@H](O)[C@]12C (tested in a mixture with another compound) was run?
Answer: The survivor count was 3 of 10.

Question: O=C(CCBr)N1CCN(C(=O)CCBr)CC1 was tested. Which survivor count (dose: 45.0 mg/kg/injection, schedule: Q01DX011 (ip), vehicle: methylcellulose (MC)) did it give?
Answer: The survivor count was 4 of 10.

Question: What about the survivor count (dose: 90.0 mg/kg/injection, schedule: Q01DX011 (ip), vehicle: carboxymethylcellulose (CMC)) of the same compound?
Answer: Its survivor count is 4 of 10 and 5 of 10.

Question: Which results are given for NC(=O)CCl?
Answer: survivor count (dose: 12.5 mg/kg/injection, schedule: Q01DX011 (ip), vehicle: other): 2 of 10; survivor count (dose: 100.0 mg/kg/injection, schedule: Q01DX011 (ip), vehicle: other): 1 of 10

— PubChem BioAssay AID180 (DTP/NCI, 2004)
